Measurements reported in PubChem BioAssay AID504621 (Broad Institute, 2011).
In all, about 310,000 compounds went through this assay and about 970 (0.31%) were called active. The shares of active, inactive and inconclusive entries below differ from those in the screen.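 The calls were made as follows: active = every replicate shows inhibition above about 80%, whatever the replicate mean (limit read from the data); inconclusive = mean inhibition reaches the set limit but some replicate falls short; inactive = the rest.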

assay: growth inhibition of PfHsp90-expressing yeast, primary screen, antimalarial PfHsp90 inhibitor project, S. cerevisiae, BacTiter-Glo luminescence, single point, set 2 (AID 504621); conditions: BacTiter-Glo ATP, 48 h, at 9.4 µM, active compounds read high, yeast lacking PDR1 and PDR3 efflux regulators;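 also: yeast relying on Plasmodium falciparum Hsp90 in place of its own; 0% = DMSO neutral controls and 100% = 20 µM radicicol positive controls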

SMILES | inhibition
Cc1ccsc1/C=N/Nc1nc(=O)[nH]nc1C | inconclusive: 75.2%
Oc1cccc(-c2nc3ccc4ccccc4c3c3c2CCC3)c1 | inconclusive: 83.9%
CCOc1ccc2nc(NCCNC(=S)NCCCN(C)C)c(C#N)cc2c1 | inactive: 11.9%
CC(C)=NOC(=O)c1ccc(-c2ccccc2)cc1 | inactive: -22.6%
O=C(c1ccc(Cl)c([N+](=O)[O-])c1)N1CCN(c2ccccc2)CC1 | inconclusive: 91%
CCC(=C(c1ccc(OC)cc1)c1ccc(OC)cc1)c1cn(CC(O)CN(CCO)CCO)c2ccccc12 (centres undefined) | inactive: 29%
Cc1c(/C=N\NC(=O)C2COc3ccccc3O2)c2ccccc2n1C (centres undefined) | inactive: 6.68%
O=C(CN1CCN(Cc2ccccc2)CC1)NNC(=O)c1ccccc1 | inactive: -5.67%
COc1ccc(C2CC(O)(c3ccccc3)Oc3c(C)ccc(C)c32)cc1 (centres undefined) | inconclusive: 87.4%
Cc1nn(C)c(C(=O)Nc2ccc(S(=O)(=O)NC34CC5CC(CC(C5)C3)C4)cc2)c1Br | inconclusive: 77.7%
Cc1sc2nc(C3CC3)nc(SCC(=O)NCc3ccco3)c2c1C | active: 84%
S=C(NN=C(c1ccccc1)c1ccccn1)N(Cc1ccccn1)Cc1ccccn1 | inconclusive: 79.6%
CN1/C(=C/C2CC(=O)N(c3cccc4ccccc34)C2=O)C(C)(C)c2ccccc21 (centres undefined) | inactive: 15.2%
CCc1cccc2c(C(=O)COC(=O)c3ccc([N+](=O)[O-])s3)c[nH]c12 | inconclusive: 96.9%
N#Cc1c(NC(=O)Cn2nc(C(F)(F)F)c3c2CCCC3)sc2c1CCC2 | inactive: 9.63%
O=C1c2ccccc2S(=O)(=O)N1CC(O)Cn1c2ccccc2c2ccccc21 (centres undefined) | inconclusive: 79.4%
CCCCCOC(=O)Cc1c(O)c2ccccc2n(C)c1=O | inconclusive: 85.3%
CN1CCN(CCCNC(=O)c2cc3c(=O)n(C)c4ccccc4c3s2)CC1 | inactive: 3.9%
Oc1c(CN2CCN(c3ccc(F)cc3)CC2)cc(Cl)c2cccnc12 | active: 136%
COc1ccccc1NS(=O)(=O)c1cc(C(=O)N2CC(C)CC(C)C2)ccc1C (centres undefined) | active: 102%
CN1C(=S)N(c2cccnc2)C(=O)/C1=C\c1ccc(C(C)(C)C)cc1 | inconclusive: 84.2%
CCN1C(=O)/C(=C2/C(=O)N3c4c(cc(OC(C)=O)cc42)C(C)=CC3(C)C)SC1=S | inactive: -9.13%

SMILES | inhibition
Cc1cccc(-c2onc3ccc(C(=O)/C=C/N(C)C)cc23)c1 | inconclusive: 76.7%
O=C(c1cnn(-c2cccc(F)c2)c1)c1ccccc1O | inactive: -2.77%
Cc1ccc(Nc2nc3ccc(Cl)cc3n3cnnc23)cc1F | inactive: 16.3%
CN(C)S(=O)(=O)Oc1cccc(C(=O)Nc2ccc(Cl)cc2)c1 | inconclusive: 75%
O=C(Oc1ccc(-c2nc(-c3ccccn3)no2)cc1)c1ccccc1 | inconclusive: 81.4%
CC1COC(=O)C(NNc2ccc(Cl)c(Cl)c2)=N1 (centres undefined) | inconclusive: 76.8%
COc1cccc(N2CCN(c3ncnc4c3[nH]c3ccc(F)cc34)CC2C)c1 (centres undefined) | inconclusive: 86%
O=C1C=CC(=O)N1c1cccc(-c2ccccc2)c1 | active: 107%
CC(C)OC(=O)CN1C(=O)S/C(=C/c2ccc(N3CCCCC3)o2)C1=O | inconclusive: 78.7%
CC(C)c1ccc(/C=C/C(=O)N2CCOCC2)cc1 | inactive: 13.4%
O=C1CS/C(=C\S(=O)(=O)c2ccc(Cl)cc2)N1 | inactive: 8.13%
O=S(=O)(/N=C(/Nc1cccc2ccccc12)c1ccccc1)c1ccccc1 | inactive: 17.9%
S=C(Nc1ccc(Oc2ccccc2)cc1)NC1CCCCC1 | inactive: -7.34%
COc1cc(C=NO)nc(-c2ccccn2)c1 | active: 97.8%
COc1ccc(N=C2C=CC(=O)O2)cc1 | inconclusive: 87%
CCC(OC(=O)c1cc2sccc2n1C)C(=O)NCc1ccco1 (centres undefined) | inconclusive: 83.8%
O=C(COc1ccc2ccc(=O)oc2c1)Nc1ccc(CCO)cc1 | inactive: -7.92%
CCOC(=O)[C@@H]1[C@H]2COc3ccc(Br)cc3[C@H]2N2C(=O)N(c3cccc(F)c3)C(=O)[C@]12C | inconclusive: 80.3%
O=C(Cc1ccc([N+](=O)[O-])cc1)Nc1cccc(C(=O)N2CCOCC2)c1 | inconclusive: 83.6%
O=C(CCl)Oc1ccc2occ(C(=O)c3cccs3)c2c1 | inactive: 1.24%
CCCN(CCC)C1CC(=O)N(Cc2ccccc2)C1=O (centres undefined) | inconclusive: 75.6%
COc1ccccc1-n1c(SCC(=O)O)nc2c(sc(=S)n2-c2ccc(C)c(C)c2)c1=O | inactive: 0.289%
N/C(=N\OC(=O)c1ccc2ccccc2c1)c1ccccc1Cl | active: 99.9%

Structural class: the compounds so far containing bromine (2)
SMILES | inhibition
Cc1nn(C)c(C(=O)Nc2ccc(S(=O)(=O)NC34CC5CC(CC(C5)C3)C4)cc2)c1Br | inconclusive: 77.7%
CCOC(=O)[C@@H]1[C@H]2COc3ccc(Br)cc3[C@H]2N2C(=O)N(c3cccc(F)c3)C(=O)[C@]12C | inconclusive: 80.3%

As entered above:
Value for O=C(CCl)Oc1ccc2occ(C(=O)c3cccs3)c2c1 under inhibition: inactive: 1.24%
Value for O=C(Oc1ccc(-c2nc(-c3ccccn3)no2)cc1)c1ccccc1 under inhibition: inconclusive: 81.4%

Going on with the list:

SMILES | inhibition
COc1cccc(OCc2cc(C(=O)N3CCN(C)C(c4ccccc4)C3)no2)c1 (centres undefined) | inconclusive: 85.3%
Cc1nn2c(NCCN3CCOCC3)c3c(nc2c1-c1ccccc1)CCCC3 | inactive: -7.08%
Cc1ccc2c(c1)c1ccc3c(c1n2C)C(=O)C=CC3=O | inconclusive: 75.8%
NC1=NC[C@H](Cc2ccc(O)cc2)N1CCc1cc(C(F)(F)F)cc(C(F)(F)F)c1 | inconclusive: 76.8%
CCOC(=O)C1=C(Cc2ccc(Cl)cc2)C(=O)c2ccccc2C1=O | active: 105%
CCOC(=O)C(=Cc1ccc(-n2cncn2)cc1)C(=O)OCC | inconclusive: 77.3%
C=C(C)C(O)CC/C(C)=C/Cc1c(O)ccc(C(=O)/C=C/c2ccc(O)cc2)c1O (centres undefined) | inconclusive: 81%
CC(CN1CCCCC1)OC(=O)C1c2ccccc2Oc2ccccc21 (centres undefined) | inconclusive: 75.2%
CC(C)(c1cc(Br)c(O)c(Br)c1)c1cc(Br)c(O)c(Br)c1 | inconclusive: 86%
COc1cccc(CN2CCN(c3nc4nonc4nc3NC3CC3)CC2)c1 | inactive: 4.45%
CN1CCC(N(C)C(=O)c2sc3cc(F)ccc3c2Cl)CC1 | inactive: -32.3%
NS(=O)(=O)c1cccc(NC(=O)CCSc2ccccc2Cl)c1 | inactive: -1.3%
Cn1c(SCC(=O)N/N=C/c2ccc([N+](=O)[O-])s2)nnc1-c1ccccc1 | inconclusive: 80.2%
O=C(Cn1ccccc1=O)NCc1ccc(F)cc1 | inactive: 8.47%
CCN1C(=O)/C(=C/c2nc3ccccc3c(=O)n2-c2ccccc2)c2ccccc21 | inactive: -7.29%
O=C(O)c1cnn(-c2nc(-c3ccc(Cl)c(Cl)c3)cs2)c1C(F)(F)F | inconclusive: 97.6%
CCCc1ccc(Oc2cn[nH]c2-c2ccc(O)cc2O)cc1 | inconclusive: 83.8%
O=C(O)c1ccccc1SC1CC(=O)N(c2cccc3ccccc23)C1=O (centres undefined) | inconclusive: 80.9%
CCOc1ccc(N2C(=O)CC(N3CCC(O)(c4ccc(Br)cc4)CC3)C2=O)cc1 (centres undefined) | inconclusive: 79.2%
Cc1nn2c(N3CCN(c4ccccn4)CC3)cc(C(C)C)nc2c1-c1ccccc1 | inconclusive: 88.5%
O=C(O)c1ccc(N2N=C(c3ccccc3)CC2c2ccccc2)cc1 (centres undefined) | inconclusive: 76%
CCCCCCCCCCOC(=O)Cn1c(COc2ccccc2C)[n+](C)c2ccccc21 | inconclusive: 89.2%
CCc1ccc(/C=C/c2c[nH]c3ccccc23)[n+](CC)c1 | inactive: 37%
